TcHisRS: 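Enzyme assay of histidyl-tRNA synthetase; the read-out is not stated. Target: Histidine-tRNA ligase, Trypanosoma cruzi CL Brener (UniProt Q4DA54). Concentration: 30 µM. Direction is inferred from retests: higher values go with stronger inhibition. Of about 69,000 compounds tested this way, about 31 (0.045%) reached 50% or more in at least one test.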
Leishmania in macrophages: 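Cell assay of Leishmania donovani living inside macrophages; the read-out is not stated. Concentration: 30 µM. Direction is inferred from retests: higher values go with stronger inhibition. About 69,000 compounds were tested under these conditions; 1.5% (about 1,000) showed 50% or more at least once.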
Toxoplasma: 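Assay of Toxoplasma gondii numbers, read through their beta-galactosidase reporter with a colour substrate. Compounds at 10 µM. Higher reads as fewer parasites (inferred from which compounds were picked for retests). About 67,000 compounds were tested under these conditions; 0.38% (about 260) showed 50% or more at least once.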
CoaBC: 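Enzyme assay of CoaBC with a phosphate dye (Biomol Green) read at 650 nm. Target: Coenzyme A biosynthesis protein CoaBC, Mycobacterium tuberculosis (UniProt P9WNZ1). Concentration: 30 µM. Direction is inferred from only a few compounds that gave an IC50; most scored high, so higher reads as stronger inhibition. Most strong results did not repeat in a second test. Of about 67,000 compounds tested this way, about 40 (0.06%) reached 50% or more in at least one test.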
LiHisRS: 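Histidine-tRNA ligase, Leishmania infantum (UniProt A4I591). Enzyme assay of histidyl-tRNA synthetase; the read-out is not stated. Concentration: 30 µM. Higher reads as stronger inhibition (inferred: compounds with an IC50 in retests scored well above the rest). The assay is labelled LdHisRS but filed under L. infantum. About 69,000 compounds were tested under these conditions; 0.6% (about 410) showed 50% or more at least once.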

By UniProt entry, the sequences of proteins in these tests, tags left out. Residues count along the entry.
UniProt Q4DA54, 1-478: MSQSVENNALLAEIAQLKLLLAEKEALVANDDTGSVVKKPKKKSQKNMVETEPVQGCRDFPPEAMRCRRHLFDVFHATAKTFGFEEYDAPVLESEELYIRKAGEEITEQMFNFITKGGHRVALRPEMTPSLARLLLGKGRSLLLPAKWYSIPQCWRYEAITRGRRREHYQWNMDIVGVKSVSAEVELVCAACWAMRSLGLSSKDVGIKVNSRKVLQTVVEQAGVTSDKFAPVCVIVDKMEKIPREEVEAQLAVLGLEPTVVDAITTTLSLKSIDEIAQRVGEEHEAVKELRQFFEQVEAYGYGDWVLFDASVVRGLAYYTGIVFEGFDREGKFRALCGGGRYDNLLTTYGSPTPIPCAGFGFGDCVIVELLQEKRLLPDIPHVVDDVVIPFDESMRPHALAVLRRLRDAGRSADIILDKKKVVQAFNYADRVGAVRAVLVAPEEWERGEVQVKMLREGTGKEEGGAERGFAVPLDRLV
UniProt P9WNZ1, whole entry: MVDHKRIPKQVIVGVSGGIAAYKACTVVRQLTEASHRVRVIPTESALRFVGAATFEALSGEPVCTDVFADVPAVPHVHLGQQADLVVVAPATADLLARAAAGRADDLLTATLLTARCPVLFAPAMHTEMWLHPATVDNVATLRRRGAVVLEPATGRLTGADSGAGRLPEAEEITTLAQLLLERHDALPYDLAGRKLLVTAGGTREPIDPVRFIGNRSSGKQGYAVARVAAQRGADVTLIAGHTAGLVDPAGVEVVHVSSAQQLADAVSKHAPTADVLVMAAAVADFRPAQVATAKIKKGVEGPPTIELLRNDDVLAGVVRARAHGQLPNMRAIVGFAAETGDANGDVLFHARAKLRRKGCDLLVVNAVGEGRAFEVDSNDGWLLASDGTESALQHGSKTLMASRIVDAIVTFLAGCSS
UniProt A4I591, 1-473: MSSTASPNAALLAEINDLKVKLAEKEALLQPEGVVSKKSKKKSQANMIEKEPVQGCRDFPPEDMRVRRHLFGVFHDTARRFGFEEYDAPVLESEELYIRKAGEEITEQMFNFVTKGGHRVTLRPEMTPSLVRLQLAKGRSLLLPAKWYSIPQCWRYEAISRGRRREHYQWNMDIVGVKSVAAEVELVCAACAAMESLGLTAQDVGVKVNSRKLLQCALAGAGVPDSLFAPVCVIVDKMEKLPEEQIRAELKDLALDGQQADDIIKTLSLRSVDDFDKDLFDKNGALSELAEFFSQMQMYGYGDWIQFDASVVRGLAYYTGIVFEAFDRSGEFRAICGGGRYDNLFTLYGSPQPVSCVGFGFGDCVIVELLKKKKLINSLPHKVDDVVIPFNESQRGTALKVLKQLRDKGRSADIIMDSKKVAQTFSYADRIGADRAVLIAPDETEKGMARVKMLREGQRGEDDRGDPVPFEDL

Values are the deposited “Percent Effect”, in %.
How 0% and 100% were set is not recorded. Most values in the screen are low, and negative values occur.
The compounds are a random part of those screened.
Two or more numbers in one place are separate tests of the same structure; such repeats can differ widely.

{"compound": "Cc1ccc(C(=O)N(C)Cc2cc(Br)cs2)c(=O)[nH]1", "TcHisRS": 0, "Leishmania in macrophages": 7.091, "Toxoplasma": -1.357, "CoaBC": 6.613, "LiHisRS": 14.29}
{"compound": "CN1CCC2(CC1)C(=O)N(C)c1ccc(F)cc12", "TcHisRS": 2.062, "CoaBC": 2.709, "LiHisRS": 6}
{"compound": "O=C(CCn1cccn1)N1CCC(C2CCN(c3ncccn3)CC2)C1", "stereo": "stereo not drawn", "TcHisRS": 7.895, "Leishmania in macrophages": 6.107, "Toxoplasma": 3.653, "LiHisRS": 10.83}
{"compound": "Cc1csc2ncc(-c3ccnc(N4CCC[C@@H]4CO)n3)c(=O)n12", "TcHisRS": 7.91, "Leishmania in macrophages": "16.69 & 1.366", "Toxoplasma": -24.98, "CoaBC": -0.6024, "LiHisRS": 20}
{"compound": "CC(C)Cc1nc(CN2CC(=O)N(C)c3ccccc3C2=O)no1", "TcHisRS": 2.128, "Leishmania in macrophages": -25.09, "Toxoplasma": -11.96, "CoaBC": 6.426, "LiHisRS": 16.42}
{"compound": "O=C(C1CCOCC1)N1CCC2(CCC(C(=O)N3CCCC3)O2)CC1", "stereo": "stereo not drawn", "TcHisRS": 8.738, "Leishmania in macrophages": 4.39, "Toxoplasma": -8.891, "CoaBC": 7.125, "LiHisRS": 17.48}
{"compound": "CCc1nc(CN2CCCN(C(=O)c3cnc(C)cn3)CC2)cs1", "TcHisRS": 10.2, "Leishmania in macrophages": 15.21, "Toxoplasma": -11.35, "CoaBC": -0.1245, "LiHisRS": 12.84}
{"compound": "CN(Cc1cccs1)C(=O)CN1CCCCC1Cn1cncn1", "stereo": "stereo not drawn", "TcHisRS": 17.26, "Leishmania in macrophages": -6.897, "Toxoplasma": 1.529, "CoaBC": 3.532, "LiHisRS": 20.43}
{"compound": "CNC(=O)c1cccc(NC(=O)NC(C)c2cc(C)oc2C)c1C", "stereo": "stereo not drawn", "TcHisRS": 9.195, "Leishmania in macrophages": 22.38, "CoaBC": 2.829, "LiHisRS": 16.13}
{"compound": "c1cnn(Cc2cn3c(n2)CN(Cc2nccs2)CC3)c1", "TcHisRS": 1.087, "CoaBC": 5.957, "LiHisRS": 20.39}
{"compound": "Cn1nccc1C(=O)N1Cc2cc(Cl)ccc2OC2(CCOCC2)C1", "TcHisRS": 4.478, "Leishmania in macrophages": "15.12 & 18.2", "Toxoplasma": 0.8527, "CoaBC": 2.676, "LiHisRS": 9.474}
{"compound": "CO[C@H]1CN(C(=O)c2nc(-c3ccccc3)[nH]c2C)CC[C@H]1N", "TcHisRS": 5.473, "Leishmania in macrophages": -10.51, "Toxoplasma": 17.81, "CoaBC": 6.667, "LiHisRS": 4.196}
{"compound": "CCCc1cc(NC2CCc3nc(CC)nn3C2)n2ncnc2n1", "stereo": "stereo not drawn", "TcHisRS": 3.067, "Leishmania in macrophages": 39.61, "Toxoplasma": 13.77, "CoaBC": 1.408, "LiHisRS": 12.35}
{"compound": "O=C(NCC(O)c1cccs1)c1ccco1", "stereo": "stereo not drawn", "TcHisRS": 2.222, "Leishmania in macrophages": 15.56, "Toxoplasma": -7.183, "CoaBC": -1.681, "LiHisRS": 11.11}
{"compound": "Cc1nc(C)n(CC2CCCN2Cc2cc(-c3cccs3)on2)n1", "stereo": "stereo not drawn", "TcHisRS": 11.24, "Leishmania in macrophages": 13.78, "Toxoplasma": -7.273, "CoaBC": 7.985, "LiHisRS": 25}
{"compound": "Cc1noc2ncc(C(=O)N3CCCC3c3ccncc3)cc12", "stereo": "stereo not drawn", "TcHisRS": -0.7519, "Leishmania in macrophages": 7.745, "CoaBC": 5.141, "LiHisRS": -7.865}

Once more, the final 2:

{"compound": "Cc1nc(C)n(CC2CCCN2Cc2cc(-c3cccs3)on2)n1", "stereo": "stereo not drawn", "TcHisRS": 11.24, "Leishmania in macrophages": 13.78, "Toxoplasma": -7.273, "CoaBC": 7.985, "LiHisRS": 25}
{"compound": "Cc1noc2ncc(C(=O)N3CCCC3c3ccncc3)cc12", "stereo": "stereo not drawn", "TcHisRS": -0.7519, "Leishmania in macrophages": 7.745, "CoaBC": 5.141, "LiHisRS": -7.865}

The values are deposited in ChEMBL (CHEMBL3988442, “University of Dundee, Small-Polar-MMV Screening Library” (2021)).